# Measurements reported in US20250043360A1, “USE OF RPN11 MARKER IN DETECTION OF MYELOMA AND DISEASE RISK THEREOF, PROGNOSIS ANALYSIS AND TREATMENT MEDICAMENT” (Peking University, priority 2022, published 2025).
# For at least one compound, name, drawing or mass did not settle the structure.
# How the values were obtained:
# Type in all cases: cell-based
# [1] = system: bortezomib-resistant LP-1 cells (LP-1BR); assay: Cell apoptosis experiment, bortezomib-resistant LP-1 cells; conditions: LP-1BR cells
# Experimental: (§1) Apoptosis was detected in LP-1 cells stably overexpressing and knocking down RPN11. The cells were treated with camptothecin (CPT) for 24 h, washed with PBS, double-stained with Annexin V-APC/propidium iodide (PI) for 15 min at room temperature in the dark, and cell collection and analysis were conducted on each sample using a FACS Calibur flow cytometer.
# (§2) Wild-type or bortezomib-resistant LP-1 cells (LP-1 or LP-1BR) were treated with Vehicle or RPN11 inhibitor (OPA or Capzimin) separately, and the proliferation and apoptosis of LP-1BR cells were detected through CCK cell counting experiment and cell apoptosis experiment.
# LP-1 cells [2] = assay: Cell apoptosis experiment, wild-type LP-1 cells
# Experimental: as §1, §2
# LP-1 cells [3] = assay: CCK cell counting experiment, wild-type LP-1 cells
# Experimental: (§3) CCK kit was used to detect cell proliferation of LP-1 cells stably overexpressing and knocking down RPN11: after the transfected cells were cultured for 48 h, the cells were digested with 0.25% trypsin and counted, inoculated in a 96-well plate at a concentration of 1×10^4 cells/mL, 100 μL in each well; 10 μL of CCK8 reagent was added to each well of the 96-well plate in the dark, the culture plate was shaken for 3 min, then placed into the incubator to continue culturing for 2 h, and the culture plate was taken out and the OD value was measured at a wavelength of 450 nm with a microplate reader.
# as §2
# [4] = system: bortezomib-resistant LP-1 cells (LP-1BR); assay: CCK cell counting experiment, bortezomib-resistant LP-1 cells; conditions: LP-1BR cells
# Experimental: as §3, §2
# LP-1 cells [5] = assay: CCK cell counting assay, RPN11 inhibitor combined with Lenalidomide or Dexamethasone; conditions: for combined treatment effect on inhibiting the growth and proliferation: vs either agent alone, range of concentrations, FIG. 8
# Experimental: as §3
# LP-1 cells were treated with RPN11 inhibitors (OPA or Capzimin) or/and Lenalidomide or Dexamethasone (within a range of concentrations), and the cell proliferation ability was detected using CCK cell counting assay.
# [6] = vs control group (Vehicle), OPA 10 μM, Capzimin 2 μM, FIG. 7B
# [7] = vs control group (Vehicle), OPA 10 μM, Capzimin 2 μM, FIG. 7A
smiles,measurement,setting,value
O=C(NCCc1nccs1)c1cnc2c(SSc3cccc4cc(C(=O)NCCc5nccs5)cnc34)cccc2c1 [Capzimin],number of apoptotic cells,[1]; [6],significantly increased
same,effect in promoting the apoptosis compared with OPA,[1]; Capzimin 2 μM vs OPA 10 μM,more significant effect
same,effect in promoting the apoptosis compared with OPA,LP-1 cells [2]; Capzimin 2 μM vs OPA 10 μM,more significant effect
same,number of apoptotic cells,LP-1 cells [2]; [6],significantly increased
same,effect in inhibiting the survival compared with OPA,LP-1 cells [3]; Capzimin 2 μM vs OPA 10 μM,more significant effect
same,proliferation ability,LP-1 cells [3]; [7],significantly reduced
same,proliferation ability,[4]; [7],significantly reduced
same,effect in inhibiting the survival compared with OPA,[4]; Capzimin 2 μM vs OPA 10 μM,more significant effect
same,combined treatment effect on inhibiting the growth and proliferation,LP-1 cells [5]; combined with dexamethasone,synergistic effect
same,combined treatment effect on inhibiting the growth and proliferation,LP-1 cells [5]; combined with lenalidomide,synergistic effect
same,inhibitory effect on the proliferation compared with OPA,LP-1 cells [5]; used in conjunction with dexamethasone,more significant inhibitory effect
same,inhibitory effect on the proliferation compared with OPA,LP-1 cells [5]; used in conjunction with lenalidomide,more significant inhibitory effect
